{
  "sequences": {"note": "Sequences of proteins named here, by UniProt entry; tags and fusion partners are left off. Residues count along the entry.", "UniProt O60894, 27-118": "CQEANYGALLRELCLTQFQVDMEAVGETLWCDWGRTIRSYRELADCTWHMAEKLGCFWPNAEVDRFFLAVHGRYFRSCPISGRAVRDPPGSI", "UniProt Q16602, 23-139": "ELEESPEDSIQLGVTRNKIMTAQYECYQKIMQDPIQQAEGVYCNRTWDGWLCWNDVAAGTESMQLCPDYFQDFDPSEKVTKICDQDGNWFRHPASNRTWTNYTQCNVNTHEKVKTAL"},
  "source": "patent US10300056B2",
  "about": "“CGRP receptor antagonists” (Heptares Therapeutics Limited, priority 2015, dated 2019)",
  "target": "CGRP receptor ectodomain complex (Homo sapiens (Human), UniProt O60894+Q16602)",
  "assay": "Receptor kinetic profiling by surface plasmon resonance (Biacore T200)",
  "settings": "SPR, in words",
  "note": "At least one compound was matched to its structure with a doubt left.",
  "data": [
    {"smiles": "Cc1cc(C[C@@H](NC(=O)N2CCC(n3c(=O)[nH]c4ncccc43)CC2)C(=O)N[C@@H](CC2CCN(CCN(C)C)CC2)C(=O)N2CCN(c3ccncc3)CC2)cc2cn[nH]c12", "note": "[Example 12, N-[(2R)-1-({(2S)-3-{1-[2-(dimethylamino)ethyl]piperidin-4-yl}-1-oxo-1-[4-(pyridin-4-yl)piperazin-1-yl]propan-2-yl}amino)-3-(7-methyl-1H-indazol-5-yl)-1-oxopropan-2-yl]-4-(2-oxo-2,3-dihydro-1H-imidazo[4,5-b]pyridin-1-yl)piperidine-1-carboxamide]", "values": [
      {"measurement": "receptor dissociation (off-rate) compared with olcegepant or MK-3207", "value": "slow receptor dissociation"}
    ]}
  ]
}
